Results are given in words; binding and its absence hold for the method and conditions named. In cells and extracts the contact can be indirect. Some results given as binding are weak or reduced against the parent protein; the word gives no strength. Where a sequence is shown, tags or fusion partners need not be part of it.

Data on two molecules can be found in paper PMC3050797.

In test [1] the target is Bud3p-GST (S. cerevisiae) (UniProt P25558). The test can be described thus: pull-down; Bud3p-GST pulled down with glutathione-Sepharose beads from yeast cell lysates after 4 h galactose induction; GFP-tagged septins detected by anti-GFP immunoblot. A general note: In western blotting, separated proteins are transferred to a membrane and probed.
In test [2] the target is T1, Bud3p-GST (S. cerevisiae), P25558.
T1 chain: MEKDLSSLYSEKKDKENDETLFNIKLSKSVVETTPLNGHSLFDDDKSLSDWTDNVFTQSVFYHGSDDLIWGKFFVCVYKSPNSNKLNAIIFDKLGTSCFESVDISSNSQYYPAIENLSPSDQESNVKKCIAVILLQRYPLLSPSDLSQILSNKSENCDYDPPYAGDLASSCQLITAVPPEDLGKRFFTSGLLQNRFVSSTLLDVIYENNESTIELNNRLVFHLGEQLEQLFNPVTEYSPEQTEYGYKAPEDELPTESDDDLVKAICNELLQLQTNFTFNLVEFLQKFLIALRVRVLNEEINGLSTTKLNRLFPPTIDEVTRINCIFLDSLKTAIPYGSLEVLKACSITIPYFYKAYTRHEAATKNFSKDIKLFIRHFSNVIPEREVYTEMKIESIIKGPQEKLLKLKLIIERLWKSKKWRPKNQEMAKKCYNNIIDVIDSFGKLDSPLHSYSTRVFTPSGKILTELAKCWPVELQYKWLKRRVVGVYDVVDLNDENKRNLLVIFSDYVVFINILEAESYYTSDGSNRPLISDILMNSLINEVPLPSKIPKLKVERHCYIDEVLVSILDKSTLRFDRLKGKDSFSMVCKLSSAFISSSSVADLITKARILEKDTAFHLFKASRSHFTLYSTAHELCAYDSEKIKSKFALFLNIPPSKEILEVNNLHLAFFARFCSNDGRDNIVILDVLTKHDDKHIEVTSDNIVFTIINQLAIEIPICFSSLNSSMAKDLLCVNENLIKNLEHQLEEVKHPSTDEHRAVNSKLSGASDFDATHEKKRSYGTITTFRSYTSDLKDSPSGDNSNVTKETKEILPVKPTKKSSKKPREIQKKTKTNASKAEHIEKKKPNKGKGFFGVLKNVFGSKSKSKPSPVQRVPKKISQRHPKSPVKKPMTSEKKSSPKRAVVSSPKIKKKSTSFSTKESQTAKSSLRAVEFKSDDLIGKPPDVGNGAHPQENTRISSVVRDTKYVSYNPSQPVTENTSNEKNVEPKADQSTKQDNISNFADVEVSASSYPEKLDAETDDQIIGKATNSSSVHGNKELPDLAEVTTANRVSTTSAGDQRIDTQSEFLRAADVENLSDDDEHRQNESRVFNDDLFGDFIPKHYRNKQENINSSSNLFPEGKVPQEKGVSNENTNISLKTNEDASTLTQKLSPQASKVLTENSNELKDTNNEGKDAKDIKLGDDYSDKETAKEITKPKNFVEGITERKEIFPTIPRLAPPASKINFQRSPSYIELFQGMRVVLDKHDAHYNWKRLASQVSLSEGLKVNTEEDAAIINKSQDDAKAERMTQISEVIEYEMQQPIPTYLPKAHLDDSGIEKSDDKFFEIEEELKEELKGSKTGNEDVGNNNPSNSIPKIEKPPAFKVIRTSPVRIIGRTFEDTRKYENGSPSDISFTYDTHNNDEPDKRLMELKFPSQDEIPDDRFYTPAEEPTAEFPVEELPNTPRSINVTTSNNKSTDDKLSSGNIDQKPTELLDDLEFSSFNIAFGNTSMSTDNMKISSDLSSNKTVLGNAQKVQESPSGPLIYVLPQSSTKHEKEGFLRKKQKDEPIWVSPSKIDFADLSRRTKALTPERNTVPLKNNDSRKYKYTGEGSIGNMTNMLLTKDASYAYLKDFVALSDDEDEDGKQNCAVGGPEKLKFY
Described as above. Conditions: remark: other sources report otherwise.

B1: Cdc10p-GFP (protein, UniProt P25342 1-322)
chain: MDPLSSVQPASYVGFDTITNQIEHRLLKKGFQFNIMVVGQSGLGKSTLINTLFASHLIDSATGDDISALPVTKTTEMKISTHTLVEDRVRLNINVIDTPGFGDFIDNSKAWEPIVKYIKEQHSQYLRKELTAQRERFITDTRVHAILYFLQPNGKELSRLDVEALKRLTEIANVIPVIGKSDTLTLDERTEFRELIQNEFEKYNFKIYPYDSEELTDEELELNRSVRSIIPFAVVGSENEIEINGETFRGRKTRWSAINVEDINQCDFVYLREFLIRTHLQDLIETTSYIHYEGFRARQLIALKENANSRSSAHMSSNAIQR
B1: the binding result in test [1] is on record as “binds”.

B2: Cdc11p-GFP, P32458 1-415 (protein)
chain: MSGIIDASSALRKRKHLKRGITFTVMIVGQSGSGRSTFINTLCGQQVVDTSTTILLPTDTSTEIDLQLREETVELEDDEGVKIQLNIIDTPGFGDSLDNSPSFEIISDYIRHQYDEILLEESRVRRNPRFKDGRVHCCLYLINPTGHGLKEIDVEFIRQLGSLVNIIPVISKSDSLTRDELKLNKKLIMEDIDRWNLPIYNFPFDEDEISDEDYETNMYLRTLLPFAIIGSNEVYEMGGDVGTIRGRKYPWGILDVEDSSISDFVILRNALLISHLHDLKNYTHEILYERYRTEALSGESVAAESIRPNLTKLNGSSSSSTTTRRNTNPFKQSNNINNDVLNPASDMHGQSTGENNETYMTREEQIRLEEERLKAFEERVQQELLLKRQELLQREKELREIEARLEKEAKIKQEE
As for B2, the binding entry in test [2] was “binds”.
